According to PMC7862700:
The list shows a part of the results, in another mix than the full data. For part of these data: At the low end of the ranking, values are background and their order means little. Some of the results follow. For part of these data: The source does not settle which construct or isoform was used.

Amino acid sequences for entries named in this document (tags omitted). A change or cut given only in a name is not applied to a line headed by its entry.
UniProt P32519: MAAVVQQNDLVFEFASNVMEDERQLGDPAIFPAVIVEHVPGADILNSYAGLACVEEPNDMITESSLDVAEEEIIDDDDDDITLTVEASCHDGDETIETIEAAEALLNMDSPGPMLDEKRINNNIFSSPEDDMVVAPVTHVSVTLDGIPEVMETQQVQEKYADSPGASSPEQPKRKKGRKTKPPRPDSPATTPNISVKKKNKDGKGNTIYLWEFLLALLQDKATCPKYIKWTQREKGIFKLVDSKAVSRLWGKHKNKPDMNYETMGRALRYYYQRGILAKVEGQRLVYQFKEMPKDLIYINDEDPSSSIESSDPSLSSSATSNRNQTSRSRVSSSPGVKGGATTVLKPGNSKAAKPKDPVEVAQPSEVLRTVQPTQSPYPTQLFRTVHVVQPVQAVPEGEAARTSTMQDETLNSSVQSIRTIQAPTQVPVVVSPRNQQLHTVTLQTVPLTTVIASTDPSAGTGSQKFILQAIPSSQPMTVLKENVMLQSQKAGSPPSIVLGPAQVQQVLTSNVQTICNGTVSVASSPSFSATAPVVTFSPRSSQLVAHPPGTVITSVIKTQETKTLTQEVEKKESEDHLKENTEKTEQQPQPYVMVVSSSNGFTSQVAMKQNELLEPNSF
UniProt P50549: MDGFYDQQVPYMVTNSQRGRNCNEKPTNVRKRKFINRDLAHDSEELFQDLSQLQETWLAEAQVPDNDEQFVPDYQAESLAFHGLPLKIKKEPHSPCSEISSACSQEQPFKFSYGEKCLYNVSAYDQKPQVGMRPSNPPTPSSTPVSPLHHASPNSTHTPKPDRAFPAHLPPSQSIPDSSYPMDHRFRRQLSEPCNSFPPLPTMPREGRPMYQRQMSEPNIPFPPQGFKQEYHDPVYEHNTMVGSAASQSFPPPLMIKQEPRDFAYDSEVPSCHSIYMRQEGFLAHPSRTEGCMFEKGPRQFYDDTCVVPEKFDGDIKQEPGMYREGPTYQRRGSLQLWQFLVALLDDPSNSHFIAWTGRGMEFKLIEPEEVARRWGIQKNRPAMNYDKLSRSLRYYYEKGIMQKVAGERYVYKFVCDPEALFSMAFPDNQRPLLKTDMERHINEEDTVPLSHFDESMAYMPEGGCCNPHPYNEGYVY

How the values were obtained:
Test in all cases: DAPPL (digital affinity profiling via proximity ligation, sequencing)
Settings in all cases: 10 mM Tris-HCl pH 7.5, 50 mM NaCl, 1 mM DTT, 4% glycerol, room temperature, 30 min; GST-TFs on glutathione beads, 16-mer random dsDNA library, 0.1% …; high values mean tight binding; double strand, one strand shown; scale: fold enrichment (6-mer frequency, TF over GST control)
ERG = target: T1, ERG (UniProt P11308)
T1 sequence: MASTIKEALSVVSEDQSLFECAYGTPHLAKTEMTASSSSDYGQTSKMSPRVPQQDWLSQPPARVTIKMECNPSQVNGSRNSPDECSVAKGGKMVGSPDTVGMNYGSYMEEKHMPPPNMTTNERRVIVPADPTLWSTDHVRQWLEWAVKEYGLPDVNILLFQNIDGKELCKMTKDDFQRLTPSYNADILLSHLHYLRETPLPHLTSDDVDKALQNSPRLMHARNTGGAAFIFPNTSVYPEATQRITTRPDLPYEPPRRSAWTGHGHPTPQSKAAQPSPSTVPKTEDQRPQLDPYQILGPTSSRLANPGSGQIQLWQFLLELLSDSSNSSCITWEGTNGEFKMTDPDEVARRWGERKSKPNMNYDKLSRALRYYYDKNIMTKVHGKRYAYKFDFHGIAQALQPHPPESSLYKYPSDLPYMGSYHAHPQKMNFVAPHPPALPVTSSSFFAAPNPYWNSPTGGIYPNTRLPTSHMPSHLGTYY

ELF1 = ELF1 (UniProt P32519)
ELK4 = target: T2, ELK4 (UniProt P28324-2)
T2 sequence: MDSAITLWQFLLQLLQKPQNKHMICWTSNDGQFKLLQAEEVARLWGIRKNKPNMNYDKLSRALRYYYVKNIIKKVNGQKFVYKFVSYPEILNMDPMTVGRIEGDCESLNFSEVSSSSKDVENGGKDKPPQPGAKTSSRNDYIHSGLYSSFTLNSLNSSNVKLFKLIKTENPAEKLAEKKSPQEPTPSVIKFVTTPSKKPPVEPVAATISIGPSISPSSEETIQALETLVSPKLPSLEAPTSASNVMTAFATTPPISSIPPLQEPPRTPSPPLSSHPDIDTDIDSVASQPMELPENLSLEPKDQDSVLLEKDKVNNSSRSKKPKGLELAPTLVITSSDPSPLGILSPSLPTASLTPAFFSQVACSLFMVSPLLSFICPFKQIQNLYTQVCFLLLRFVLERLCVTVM

ETV4 = target: T3, ETV4 (UniProt P43268)
T3 sequence: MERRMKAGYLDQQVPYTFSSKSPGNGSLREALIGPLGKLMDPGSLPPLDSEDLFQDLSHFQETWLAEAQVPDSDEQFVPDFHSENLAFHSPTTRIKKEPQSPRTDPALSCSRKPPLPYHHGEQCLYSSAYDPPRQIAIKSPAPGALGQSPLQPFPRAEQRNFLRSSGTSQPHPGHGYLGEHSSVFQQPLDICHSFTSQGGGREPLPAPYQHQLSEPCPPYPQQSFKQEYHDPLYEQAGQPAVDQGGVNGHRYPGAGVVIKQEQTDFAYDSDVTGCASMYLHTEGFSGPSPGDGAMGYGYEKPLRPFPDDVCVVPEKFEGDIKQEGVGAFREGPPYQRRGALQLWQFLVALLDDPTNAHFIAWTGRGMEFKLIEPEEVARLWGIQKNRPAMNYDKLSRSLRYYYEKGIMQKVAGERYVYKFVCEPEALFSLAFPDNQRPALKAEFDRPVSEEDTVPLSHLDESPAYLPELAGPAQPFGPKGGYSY

ETV1 = ETV1 (UniProt P50549)
ERF = target: T4, ERF (UniProt P50548)
T4 sequence: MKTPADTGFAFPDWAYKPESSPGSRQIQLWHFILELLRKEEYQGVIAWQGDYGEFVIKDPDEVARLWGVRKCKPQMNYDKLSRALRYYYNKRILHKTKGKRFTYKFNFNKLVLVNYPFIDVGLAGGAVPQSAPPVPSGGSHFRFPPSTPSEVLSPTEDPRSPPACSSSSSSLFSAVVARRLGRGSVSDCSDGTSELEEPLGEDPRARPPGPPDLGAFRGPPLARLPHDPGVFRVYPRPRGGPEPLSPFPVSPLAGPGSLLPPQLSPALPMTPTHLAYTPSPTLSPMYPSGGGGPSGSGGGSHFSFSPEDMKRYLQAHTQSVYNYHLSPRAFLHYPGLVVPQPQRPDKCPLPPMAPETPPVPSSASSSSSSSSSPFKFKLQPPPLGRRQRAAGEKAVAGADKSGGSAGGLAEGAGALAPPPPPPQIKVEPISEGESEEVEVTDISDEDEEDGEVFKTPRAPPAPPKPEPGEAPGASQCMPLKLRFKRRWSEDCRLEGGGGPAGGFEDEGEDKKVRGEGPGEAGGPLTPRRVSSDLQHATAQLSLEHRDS

Row | Sequence | binding signal (ERG) | binding signal (ELF1) | binding signal (ELK4) | binding signal (ETV4) | binding signal (ETV1) | binding signal (ERF)
1 | GGGGGT | 0.519 | 0.52 | 0.567 | 0.556 | 0.604 | 0.567
2 | GAGCGA | 0.639 | 0.657 | 0.631 | 0.612 | 0.655 | 0.673
3 | TAGACG | 0.782 | 0.798 | 0.87 | 0.775 | 0.786 | 0.767
4 | AGGTGC | 0.602 | 0.662 | 0.696 | 0.596 | 0.736 | 0.643
5 | GGCGCT | 0.709 | 0.762 | 0.792 | 0.779 | 0.783 | 0.782
6 | CCAGTC | 0.293 | 0.275 | 0.285 | 0.254 | 0.277 | 0.292
7 | CGTGGC | 0.867 | 0.897 | 0.954 | 0.86 | 0.84 | 0.846
8 | GCGAGC | 0.878 | 0.953 | 0.838 | 0.894 | 0.923 | 0.979
9 | GGGGCC | 0.602 | 0.565 | 0.608 | 0.583 | 0.544 | 0.584
10 | GCAGGG | 0.627 | 0.608 | 0.601 | 0.684 | 0.642 | 0.676
11 | GGGTAG | 0.647 | 0.657 | 0.593 | 0.706 | 0.657 | 0.735
12 | TAGTCG | 0.444 | 0.462 | 0.483 | 0.459 | 0.46 | 0.467
13 | GAGGGA | 0.516 | 0.483 | 0.484 | 0.479 | 0.511 | 0.516
14 | GCATAG | 0.801 | 0.749 | 0.766 | 0.85 | 0.775 | 0.844
15 | CAACGT | 0.871 | 0.895 | 0.898 | 0.928 | 0.946 | 0.842
16 | GGTGGC | 0.77 | 0.686 | 0.867 | 0.723 | 0.7 | 0.732
17 | AGTAAG | 0.717 | 0.767 | 0.713 | 0.754 | 0.795 | 0.678
18 | TGAGTC | 0.216 | 0.184 | 0.185 | 0.186 | 0.193 | 0.208
19 | GGAGAT | 0.297 | 0.303 | 0.262 | 0.298 | 0.296 | 0.312
20 | GGGAGG | 0.34 | 0.301 | 0.328 | 0.308 | 0.355 | 0.307
21 | GACGCC | 0.801 | 0.946 | 0.679 | 0.931 | 0.713 | 0.895
22 | GAGTGG | 0.618 | 0.61 | 0.696 | 0.598 | 0.597 | 0.662
23 | ATGTGA | 0.633 | 0.659 | 0.665 | 0.647 | 0.658 | 0.617
24 | AGCGAG | 0.617 | 0.658 | 0.574 | 0.629 | 0.656 | 0.637

Record cards, as listed above:
GGGTAG as listed: binding signal (ERG) = 0.647; binding signal (ELF1) = 0.657; binding signal (ELK4) = 0.593; binding signal (ETV4) = 0.706; binding signal (ETV1) = 0.657; binding signal (ERF) = 0.735
GAGTGG as listed: binding signal (ERG) = 0.618; binding signal (ELF1) = 0.61; binding signal (ELK4) = 0.696; binding signal (ETV4) = 0.598; binding signal (ETV1) = 0.597; binding signal (ERF) = 0.662
GCGAGC as listed: binding signal (ERG) = 0.878; binding signal (ELF1) = 0.953; binding signal (ELK4) = 0.838; binding signal (ETV4) = 0.894; binding signal (ETV1) = 0.923; binding signal (ERF) = 0.979
TAGACG as listed: binding signal (ERG) = 0.782; binding signal (ELF1) = 0.798; binding signal (ELK4) = 0.87; binding signal (ETV4) = 0.775; binding signal (ETV1) = 0.786; binding signal (ERF) = 0.767

(continued)

Row | Sequence | binding signal (ERG) | binding signal (ELF1) | binding signal (ELK4) | binding signal (ETV4) | binding signal (ETV1) | binding signal (ERF)
25 | AAGTGA | 0.701 | 0.632 | 0.551 | 0.601 | 0.654 | 0.599
26 | CCCAGG | 0.772 | 0.766 | 0.741 | 0.86 | 0.784 | 0.694
27 | AGCCCG | 0.853 | 0.876 | 0.909 | 0.939 | 0.888 | 0.937
28 | CGCATT | 0.72 | 0.812 | 0.779 | 0.78 | 0.799 | 0.815
29 | AGTCCG | 0.631 | 0.55 | 0.619 | 0.568 | 0.542 | 0.518
30 | CCAGTG | 0.45 | 0.478 | 0.431 | 0.485 | 0.419 | 0.475
31 | AGGACT | 0.888 | 1 | 0.951 | 0.999 | 0.86 | 0.861
32 | GTCTGT | 0.904 | 0.842 | 0.997 | 0.873 | 1.01 | 0.876
33 | CGGGTG | 0.635 | 0.672 | 0.755 | 0.622 | 0.693 | 0.659
34 | GAGGTC | 0.575 | 0.601 | 0.634 | 0.601 | 0.657 | 0.637
35 | GTTAGT | 0.811 | 0.77 | 0.845 | 0.8 | 0.79 | 0.773
36 | CCGGAG | 0.573 | 0.477 | 0.549 | 0.523 | 0.536 | 0.501
37 | CGGGAT | 0.614 | 0.622 | 0.684 | 0.598 | 0.663 | 0.644
38 | GCACGT | 0.757 | 0.816 | 0.792 | 0.778 | 0.742 | 0.797
39 | TGTGTA | 0.838 | 0.819 | 0.881 | 0.925 | 0.857 | 0.979
40 | AGGCGA | 0.542 | 0.526 | 0.493 | 0.471 | 0.577 | 0.501
41 | AGGTTG | 0.716 | 0.754 | 0.812 | 0.7 | 0.748 | 0.671
42 | CAGTGG | 0.506 | 0.485 | 0.498 | 0.485 | 0.437 | 0.524
43 | CGTAGG | 0.672 | 0.651 | 0.615 | 0.619 | 0.625 | 0.631
44 | CCCGGG | 0.775 | 0.849 | 0.872 | 0.83 | 0.848 | 0.8
45 | GACGGA | 0.542 | 0.477 | 0.458 | 0.487 | 0.488 | 0.501
46 | GACCGT | 0.461 | 0.477 | 0.464 | 0.423 | 0.459 | 0.43
47 | ACGTGC | 0.634 | 0.671 | 0.765 | 0.728 | 0.762 | 0.769
